Measurements published in patent US20160192641A1, “STABLE EMULSION FORMULATION HINDERING INTERACTION ACROSS THE WATER-OIL INTERFACE” (Dow AgroSciences LLC, priority 2007, published 2016).
Some of these results come from one statement about several compounds together.

Experiment: Solubility of actives in oil phase
Excerpt: For a given oil phase which is often designed to meet specific market, customer, or application needs, actives or other components in aqueous phase can form and grow large crystals in oil phase due to high solubilities and Oswald Ripening, and result in emulsion destabilization.

For O=C(Nc1ccc(F)cc1F)c1cccnc1Oc1cccc(C(F)(F)F)c1 [diflufenican], which “solubility in methylated seed oils” value is on record?
The value was greater than 10000 ppm.
